From PubChem BioAssay AID256 (DTP/NCI, 2004)
The list is a part of this screen's results and no random one: it is rich in T/C values a quarter to a half above the control, in often repeated tests (any T/C) and in doses without a T/C. Other doses and runs of a compound stand elsewhere. T/C gives the treated animals as a percentage of the vehicle group. Some doses have a count of surviving animals in place of a T/C: the source files T/C as zero there, which appears to mark a toxic dose or a test without result, not a measured value. Some survivor counts are full or nearly so, which does not show that the dose was tolerated: survival well below the control is almost never listed, so the zero probably covers shortened survival too. Counts of survivors are from the toxicity check (mostly the fifth day) where no day follows; animals may have died later. Schedules are NCI's codes, taken here to give the interval after Q, in days (D) or hours (H), and the number of doses after X. Some entries hold several experiments; their values stand side by side, smallest first. Where survival is the endpoint, the PubChem record calls one and a half times the control and up active, and a quarter to a half above the control has no call in these data; cut-offs in other NCI protocols can differ. Some T/C values carry the count of animals alive at the toxicity check (mostly the fifth day); where none is given, no animal had died by that day.

Test system: CD2F1 mice, L1210 leukemia ip, survival T/C
Test: NCI In Vivo Anticancer Drug Screen. Data for tumor model L1210 Leukemia (intraperitoneal) in CD2F1 (CDF1) mice
Details: higher T/C = longer survival
Summary of the method: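 In this screen, transplantable tumors were grown in mice given either the compound or its vehicle. Results were expressed as the treated measurement relative to the control measurement.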

[1] = T/C endpoint: mean survival time, dose: 200.0 mg/kg/injection, schedule: Q01DX009 (ip), vehicle: saline with Tween-80
[2] = T/C endpoint: mean survival time, dose: 200.0 mg/kg/injection, schedule: Q04DX003 (ip), vehicle: saline with Tween-80
[3] = T/C endpoint: mean survival time, dose: 200.0 mg/kg/injection, schedule: Q04DX003 (ip), vehicle: saline
[4] = T/C endpoint: mean survival time, dose: 400.0 mg/kg/injection, schedule: Q04DX003 (ip), vehicle: saline
[5] = T/C endpoint: mean survival time, dose: 200.0 mg/kg/injection, schedule: Q04DX003 (ip), vehicle: acetone
[6] = T/C endpoint: mean survival time, dose: 400.0 mg/kg/injection, schedule: Q04DX003 (ip), vehicle: acetone
[7] = T/C endpoint: mean survival time, dose: 400.0 mg/kg/injection, schedule: Q04DX003 (ip), vehicle: saline with Tween-80
[8] = T/C endpoint: mean survival time, dose: 400.0 mg/kg/injection, schedule: Q04DX002 (ip), vehicle: saline with Tween-80
[9] = T/C endpoint: mean survival time, dose: 400.0 mg/kg/injection, schedule: Q01DX009 (ip), vehicle: other
[10] = T/C endpoint: mean survival time, dose: 400.0 mg/kg/injection, schedule: Q01DX009 (ip), vehicle: saline with Tween-80

c1ccc([I+]c2ccccc2)cc1
survivor count (T/C endpoint: mean survival time, dose: 5.0 mg/kg/injection, schedule: Q01DX009 (ip), vehicle: saline sonified): 3 of 6 | survivor count (T/C endpoint: mean survival time, dose: 10.0 mg/kg/injection, schedule: Q01DX009 (ip), vehicle: saline sonified): 2 of 6 and 4 of 6 | survivor count (T/C endpoint: mean survival time, dose: 20.0 mg/kg/injection, schedule: Q01DX009 (ip), vehicle: saline sonified): 3 of 6

N=[N+]=CC(=O)CC(N)C(=O)O (centres undefined)
survivor count (T/C endpoint: median survival time, dose: 1600.0 mg/kg/injection, schedule: Q01DX001 (ip), vehicle: saline): 1 of 6

Cc1ccc(NC(=O)OCCSc2ccc(Cl)cc2)cc1C
survivor count [1]: 3 of 3

Cc1ccc(OCc2c(COc3ccc(Cl)cc3)sc3ccc(Cl)cc23)cc1
survivor count [2]: 6 of 6

CCN(CCNc1ccc(C)c2sc3ccccc3c(=O)c12)CC(C)(C)O
T/C [3]: 136 % of control | T/C (T/C endpoint: mean survival time, dose: 400.0 mg/kg/injection, schedule: Q01DX001 (ip), vehicle: saline): 126 % of control [5 of 6 alive] | survivor count (T/C endpoint: mean survival time, dose: 600.0 mg/kg/injection, schedule: Q01DX001 (ip), vehicle: saline): 3 of 6 | survivor count (T/C endpoint: mean survival time, dose: 600.0 mg/kg/injection, schedule: Q04DX003 (ip), vehicle: saline): 3 of 6 | survivor count (T/C endpoint: mean survival time, dose: 800.0 mg/kg/injection, schedule: Q04DX003 (ip), vehicle: saline): 2 of 6

C[N+](C)(C)CC1CO1 (centres undefined)
survivor count [4]: 1 of 6

CC(C)c1ccc(C(=O)O)cc1S(=O)(=O)Cl
survivor count [3]: 0 of 6 | survivor count [4]: 1 of 6

C#CCOC1CCCCC1O (centres undefined)
survivor count [5]: 1 of 6 | survivor count [6]: 0 of 6

COc1ccc(NC(=O)Nc2cccc([N+](=O)[O-])c2OC)cc1
survivor count (T/C endpoint: mean survival time, dose: 100.0 mg/kg/injection, schedule: Q04DX002 (ip), vehicle: saline with Tween-80): 3 of 3

[B-][N+]1(C)CC[N+]([B-])(C)CC1 (centres undefined)
survivor count (T/C endpoint: mean survival time, dose: 20.0 mg/kg/injection, schedule: Q01DX009 (ip), vehicle: saline with Tween-80): 4 of 6 | survivor count (T/C endpoint: mean survival time, dose: 100.0 mg/kg/injection, schedule: Q04DX003 (ip), vehicle: saline with Tween-80): 0 of 6 | survivor count [2]: 0 of 6 | survivor count [7]: 0 of 6

CCCCCCCCCCCC[N+]1(C)CCC[N+](C)(CCCCCCCCCCCC)CC1 (centres undefined)
survivor count (T/C endpoint: mean survival time, dose: 150.0 mg/kg/injection, schedule: Q01DX001 (ip), vehicle: saline with Tween-80): 0 of 6 | survivor count (T/C endpoint: mean survival time, dose: 300.0 mg/kg/injection, schedule: Q01DX001 (ip), vehicle: saline with Tween-80): 0 of 6

CCN1/C(=C/C=C/C=C/c2sc3ccccc3[n+]2CC)Sc2ccccc21
T/C (T/C endpoint: mean survival time, dose: 0.19 mg/kg/injection, schedule: Q01DX009 (ip), vehicle: saline): 126 % of control | survivor count (T/C endpoint: mean survival time, dose: 0.39 mg/kg/injection, schedule: Q01DX009 (ip), vehicle: saline): 1 of 3

O=[N+]([O-])c1ccc(/C=N/O)o1
survivor count (T/C endpoint: mean survival time, dose: 225.0 mg/kg/injection, schedule: Q01DX001 (ip), vehicle: saline): 3 of 6 | survivor count (T/C endpoint: mean survival time, dose: 335.0 mg/kg/injection, schedule: Q01DX001 (ip), vehicle: saline): 1 of 6

CCN(CC)CC(=O)Nc1c(C)cccc1C
survivor count [2]: 4 of 6 | survivor count [7]: 0 of 6

CN(C)N=Nc1ccc(C#N)cc1C(N)=O
T/C (T/C endpoint: mean survival time, dose: 37.5 mg/kg/injection, schedule: Q01DX009 (ip), vehicle: Klucel (hydroxypropylcellulose) (HPC)): 128 % of control | T/C (T/C endpoint: mean survival time, dose: 75.0 mg/kg/injection, schedule: Q01DX009 (ip), vehicle: Klucel (hydroxypropylcellulose) (HPC)): 125 and 133 % of control | survivor count (T/C endpoint: mean survival time, dose: 150.0 mg/kg/injection, schedule: Q01DX009 (ip), vehicle: Klucel (hydroxypropylcellulose) (HPC)): 5 of 6 | survivor count (T/C endpoint: mean survival time, dose: 300.0 mg/kg/injection, schedule: Q01DX009 (ip), vehicle: Klucel (hydroxypropylcellulose) (HPC)): 0 of 6

COc1cc(OC)c(NC(=O)OCCOc2ccc(Cl)cc2Cl)cc1Cl
survivor count [1]: 3 of 3

CCOP(=O)(OCC)C(C#N)Cc1ccccc1OC (centres undefined)
survivor count [4]: 0 of 6

Nc1ccc(CCCCc2ccccc2)cc1
survivor count [5]: 4 of 6 | survivor count [6]: 0 of 6

O=C(O)C(O)C(O)C(O)C(O)C(O)CO.[NH-]C1CCCCC1[NH-].[Pt+2] (centres undefined)
T/C (T/C endpoint: median survival time, dose: 6.25 mg/kg/injection, schedule: Q04DX003 (ip), vehicle: saline): 128 and 147 % of control | survivor count (T/C endpoint: median survival time, dose: 100.0 mg/kg/injection, schedule: Q04DX003 (ip), vehicle: saline): 4 of 6

CS(=O)(=O)OCCBr
survivor count (T/C endpoint: mean survival time, dose: 100.0 mg/kg/injection, schedule: Q04DX003 (ip), vehicle: saline): 6 of 6 | survivor count [3]: 0 of 6

O=P(OCc1ccccc1)(N(CCCl)CCCl)N1CCCCC1 (centres undefined)
survivor count (T/C endpoint: mean survival time, dose: 500.0 mg/kg/injection, schedule: Q01DX010 (ip), vehicle: saline): 0 of 6

CC1OC(O[C@@H]2C=C3CC[C@@H]4[C@H](CC[C@]5(C)[C@@H](c6ccc(=O)oc6)CC[C@]45O)[C@@]3(C)CC2)C(O)C(O)C1O (some centres undefined)
survivor count (T/C endpoint: mean survival time, dose: 20.0 mg/kg/injection, schedule: Q01DX009 (sc), vehicle: steroid suspending solution): 2 of 6

Nc1cc(N)nc(N)n1
survivor count (T/C endpoint: mean survival time, dose: 400.0 mg/kg/injection, schedule: Q01DX001 (ip), vehicle: saline with Tween-80): 0 of 6

Cc1c2cnccc2c(C)c2c1c1ccccc1n2CCCCCCCl
survivor count [7]: 3 of 6

O=C(COc1ccc(F)cc1)OCCOC(=O)COc1ccc(F)cc1
survivor count [8]: 3 of 3

c1nc(SSc2ncnc3nc[nH]c23)c2[nH]cnc2n1
T/C (T/C endpoint: mean survival time, dose: 1.9 mg/kg/injection, schedule: Q01DX009 (ip), vehicle: acetone): 134 % of control | T/C (T/C endpoint: mean survival time, dose: 2.9 mg/kg/injection, schedule: Q01DX009 (ip), vehicle: acetone): 139 % of control | T/C (T/C endpoint: mean survival time, dose: 4.4 mg/kg/injection, schedule: Q01DX009 (ip), vehicle: saline): 137 % of control | T/C (T/C endpoint: mean survival time, dose: 6.6 mg/kg/injection, schedule: Q01DX009 (ip), vehicle: saline): 128 % of control | T/C (T/C endpoint: mean survival time, dose: 44.0 mg/kg/injection, schedule: Q01DX001 (ip), vehicle: saline with Tween-80): 145 % of control | survivor count (T/C endpoint: mean survival time, dose: 50.0 mg/kg/injection, schedule: Q01DX009 (ip), vehicle: saline with Tween-80): 4 of 6 | survivor count (T/C endpoint: mean survival time, dose: 100.0 mg/kg/injection, schedule: Q01DX009 (ip), vehicle: saline with Tween-80): 5 of 6

CCN(N=O)C(=O)N(Cc1ccccc1)Cc1ccccc1
survivor count [9]: 2 of 5

COc1cc2c(cc1OC)C(CCN)=NCC2
survivor count [3]: 3 of 6 | survivor count [4]: 0 of 6

C[n+]1c(-c2ccc(NC(=O)c3ccc(C(=O)Nc4ccc(-c5cn6ccccc6[n+]5C)cc4)cc3)cc2)cn2ccccc21
T/C (T/C endpoint: median survival time, dose: 50.0 mg/kg/injection, schedule: Q01DX005 (ip), vehicle: saline with Tween-80): 126 % of control | survivor count (T/C endpoint: median survival time, dose: 69.0 mg/kg/injection, schedule: Q01DX005 (ip), vehicle: saline with Tween-80): 6 of 6

COc1cc(/C=C2\SC(=O)NC2=O)ccc1O
survivor count [1]: 0 of 6 | survivor count [10]: 0 of 6

O=C(CCCCCCCCC(=O)OO)OO (tested in a mixture with another compound)
survivor count [1]: 1 of 6 | survivor count [10]: 0 of 6

OC1(c2cccc(C(F)(F)F)c2)CCN(C2CC2c2ccccc2)CC1 (centres undefined)
survivor count [8]: 1 of 3

CN(Cc1ccccc1)N=Nc1ccc(C(=O)O)cc1
survivor count (T/C endpoint: mean survival time, dose: 200.0 mg/kg/injection, schedule: Q01DX009 (ip), vehicle: other): 1 of 3 | survivor count [9]: 0 of 3

c1cc[c]([Sn]([NH]c2ncnc3[nH]cnc23)([NH]c2ncnc3[nH]cnc23)[c]2ccccc2)cc1
T/C (T/C endpoint: median survival time, dose: 12.5 mg/kg/injection, schedule: Q01DX009 (ip), vehicle: saline): 130 % of control | T/C (T/C endpoint: median survival time, dose: 50.0 mg/kg/injection, schedule: Q01DX009 (ip), vehicle: saline): 148 % of control | survivor count (T/C endpoint: median survival time, dose: 400.0 mg/kg/injection, schedule: Q01DX009 (ip), vehicle: saline with Tween-80): 2 of 6 | survivor count (T/C endpoint: median survival time, dose: 400.0 mg/kg/injection, schedule: Q01DX009 (ip), vehicle: suspension in saline): 0 of 6
